Experimental data as given in the supplement of paper PMC12823440, “Inhibitors supercharge kinase turnover through native proteolytic circuits” (Nature, 2025).
The list shows a part of the results. The calls rarely recur for the same compound in another form.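 Kinases, fused to nanoluciferase, were expressed in K562 cells; luminescence was measured every 4 h from 2 to 18 h as percent of control (DMSO = 100%, positive control = 0%). A time point is decreased if signal falls significantly (2 sigma). Hits were called by the authors by a rule that is not shown; the count of time points alone does not decide it.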

Protein sequences, listed by entry. Tags and fused reporters are not part of them. Lines headed by an entry give the natural chain unless they say otherwise; changes in a name come on top.
UniProt Q15208: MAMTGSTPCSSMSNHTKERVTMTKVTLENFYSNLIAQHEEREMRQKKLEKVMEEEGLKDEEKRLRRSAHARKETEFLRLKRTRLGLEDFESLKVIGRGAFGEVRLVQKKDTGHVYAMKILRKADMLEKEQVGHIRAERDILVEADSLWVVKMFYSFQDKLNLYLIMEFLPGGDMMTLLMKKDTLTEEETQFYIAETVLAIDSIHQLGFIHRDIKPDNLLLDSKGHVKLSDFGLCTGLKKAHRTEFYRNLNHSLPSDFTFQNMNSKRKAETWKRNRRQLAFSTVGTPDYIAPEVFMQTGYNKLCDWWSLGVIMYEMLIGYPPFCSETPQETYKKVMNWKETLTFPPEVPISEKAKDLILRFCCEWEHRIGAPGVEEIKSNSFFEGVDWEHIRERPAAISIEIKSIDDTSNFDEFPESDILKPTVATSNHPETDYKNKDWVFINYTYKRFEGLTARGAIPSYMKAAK
UniProt P42680: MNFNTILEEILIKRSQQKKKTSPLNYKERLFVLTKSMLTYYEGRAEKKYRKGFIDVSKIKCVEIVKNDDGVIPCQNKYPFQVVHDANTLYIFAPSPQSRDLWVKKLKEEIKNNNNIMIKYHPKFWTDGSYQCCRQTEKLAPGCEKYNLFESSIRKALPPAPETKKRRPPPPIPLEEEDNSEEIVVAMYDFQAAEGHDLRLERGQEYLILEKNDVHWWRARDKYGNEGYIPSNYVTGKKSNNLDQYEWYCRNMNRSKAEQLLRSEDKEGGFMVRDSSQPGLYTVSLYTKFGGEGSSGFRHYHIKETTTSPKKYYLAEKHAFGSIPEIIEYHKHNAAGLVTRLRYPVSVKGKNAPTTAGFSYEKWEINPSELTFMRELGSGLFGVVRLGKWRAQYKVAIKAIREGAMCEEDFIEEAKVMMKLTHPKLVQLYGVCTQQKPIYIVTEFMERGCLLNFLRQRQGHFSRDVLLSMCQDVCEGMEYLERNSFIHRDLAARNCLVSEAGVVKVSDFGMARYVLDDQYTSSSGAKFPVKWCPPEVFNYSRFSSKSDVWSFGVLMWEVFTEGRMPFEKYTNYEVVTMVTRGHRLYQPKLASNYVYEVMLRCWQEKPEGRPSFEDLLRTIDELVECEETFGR
UniProt P29597: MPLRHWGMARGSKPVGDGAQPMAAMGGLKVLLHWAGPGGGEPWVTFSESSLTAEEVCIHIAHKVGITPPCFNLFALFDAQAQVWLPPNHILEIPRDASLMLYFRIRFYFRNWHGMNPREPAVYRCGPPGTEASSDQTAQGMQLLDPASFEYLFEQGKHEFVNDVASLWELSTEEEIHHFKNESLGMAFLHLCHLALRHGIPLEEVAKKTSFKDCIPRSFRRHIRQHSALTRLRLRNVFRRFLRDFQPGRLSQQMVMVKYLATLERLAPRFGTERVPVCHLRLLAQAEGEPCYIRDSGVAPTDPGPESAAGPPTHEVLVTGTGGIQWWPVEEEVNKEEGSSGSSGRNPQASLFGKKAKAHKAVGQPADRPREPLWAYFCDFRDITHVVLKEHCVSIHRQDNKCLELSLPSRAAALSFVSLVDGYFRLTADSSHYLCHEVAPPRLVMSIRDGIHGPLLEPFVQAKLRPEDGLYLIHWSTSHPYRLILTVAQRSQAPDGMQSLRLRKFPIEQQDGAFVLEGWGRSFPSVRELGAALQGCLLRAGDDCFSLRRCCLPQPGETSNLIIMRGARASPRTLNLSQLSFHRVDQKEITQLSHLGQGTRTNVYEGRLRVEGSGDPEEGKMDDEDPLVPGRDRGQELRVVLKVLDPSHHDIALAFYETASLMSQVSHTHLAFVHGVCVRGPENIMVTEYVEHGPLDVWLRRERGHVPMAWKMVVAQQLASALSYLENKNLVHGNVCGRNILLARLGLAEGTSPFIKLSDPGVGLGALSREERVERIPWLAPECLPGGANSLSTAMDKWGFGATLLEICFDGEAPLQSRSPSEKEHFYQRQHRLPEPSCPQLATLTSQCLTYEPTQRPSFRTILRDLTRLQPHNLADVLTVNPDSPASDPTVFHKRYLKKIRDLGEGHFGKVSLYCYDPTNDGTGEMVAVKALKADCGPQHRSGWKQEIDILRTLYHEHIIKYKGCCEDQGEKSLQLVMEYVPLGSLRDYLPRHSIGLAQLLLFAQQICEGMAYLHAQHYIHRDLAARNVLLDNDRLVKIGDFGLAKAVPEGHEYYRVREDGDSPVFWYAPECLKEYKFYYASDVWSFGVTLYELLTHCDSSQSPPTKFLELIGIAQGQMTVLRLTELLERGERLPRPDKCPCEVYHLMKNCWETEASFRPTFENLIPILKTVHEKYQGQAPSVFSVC
UniProt Q6PHR2: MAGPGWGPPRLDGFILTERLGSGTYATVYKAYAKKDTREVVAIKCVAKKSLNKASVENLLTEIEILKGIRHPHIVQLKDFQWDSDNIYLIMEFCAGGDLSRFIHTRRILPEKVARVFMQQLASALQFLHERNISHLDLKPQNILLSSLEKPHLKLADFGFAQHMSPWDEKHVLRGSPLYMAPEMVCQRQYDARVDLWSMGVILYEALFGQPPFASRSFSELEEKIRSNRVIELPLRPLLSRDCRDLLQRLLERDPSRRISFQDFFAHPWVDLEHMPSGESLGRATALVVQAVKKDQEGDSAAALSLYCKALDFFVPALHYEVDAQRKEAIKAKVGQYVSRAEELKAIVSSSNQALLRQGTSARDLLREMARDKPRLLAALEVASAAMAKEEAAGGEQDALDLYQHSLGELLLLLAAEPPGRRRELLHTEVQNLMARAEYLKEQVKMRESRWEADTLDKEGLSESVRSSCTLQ
UniProt P07947, whole entry, looked up: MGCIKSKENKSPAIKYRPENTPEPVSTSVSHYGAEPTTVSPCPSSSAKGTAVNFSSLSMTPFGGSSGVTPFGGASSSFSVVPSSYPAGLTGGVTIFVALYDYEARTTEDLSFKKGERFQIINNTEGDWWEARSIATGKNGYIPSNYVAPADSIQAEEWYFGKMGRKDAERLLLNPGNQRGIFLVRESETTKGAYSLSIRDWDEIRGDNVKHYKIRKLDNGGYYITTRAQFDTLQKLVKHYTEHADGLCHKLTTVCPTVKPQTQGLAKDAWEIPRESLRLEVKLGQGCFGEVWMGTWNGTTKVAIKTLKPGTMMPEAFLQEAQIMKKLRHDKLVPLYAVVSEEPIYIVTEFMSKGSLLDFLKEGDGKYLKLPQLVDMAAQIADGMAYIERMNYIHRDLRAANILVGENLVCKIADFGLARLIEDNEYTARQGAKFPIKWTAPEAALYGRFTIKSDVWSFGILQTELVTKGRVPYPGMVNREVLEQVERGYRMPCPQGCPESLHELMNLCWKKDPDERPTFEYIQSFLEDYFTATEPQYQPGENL
UniProt P43403: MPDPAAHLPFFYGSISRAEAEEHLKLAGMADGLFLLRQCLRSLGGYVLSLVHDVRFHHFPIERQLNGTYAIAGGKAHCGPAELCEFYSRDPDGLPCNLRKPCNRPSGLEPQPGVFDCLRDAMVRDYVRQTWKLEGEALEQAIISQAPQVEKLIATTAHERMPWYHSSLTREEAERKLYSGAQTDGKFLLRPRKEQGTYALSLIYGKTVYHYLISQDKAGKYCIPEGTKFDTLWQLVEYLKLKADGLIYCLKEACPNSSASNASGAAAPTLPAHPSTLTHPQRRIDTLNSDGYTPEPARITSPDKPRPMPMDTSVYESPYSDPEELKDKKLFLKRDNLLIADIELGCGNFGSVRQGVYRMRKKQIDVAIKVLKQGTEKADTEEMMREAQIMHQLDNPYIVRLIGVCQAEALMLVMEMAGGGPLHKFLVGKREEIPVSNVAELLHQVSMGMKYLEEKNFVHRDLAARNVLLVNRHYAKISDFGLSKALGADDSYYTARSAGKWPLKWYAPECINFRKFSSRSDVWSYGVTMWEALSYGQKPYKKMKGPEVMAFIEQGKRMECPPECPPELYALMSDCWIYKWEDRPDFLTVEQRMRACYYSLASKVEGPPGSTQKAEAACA
UniProt P00519, whole entry: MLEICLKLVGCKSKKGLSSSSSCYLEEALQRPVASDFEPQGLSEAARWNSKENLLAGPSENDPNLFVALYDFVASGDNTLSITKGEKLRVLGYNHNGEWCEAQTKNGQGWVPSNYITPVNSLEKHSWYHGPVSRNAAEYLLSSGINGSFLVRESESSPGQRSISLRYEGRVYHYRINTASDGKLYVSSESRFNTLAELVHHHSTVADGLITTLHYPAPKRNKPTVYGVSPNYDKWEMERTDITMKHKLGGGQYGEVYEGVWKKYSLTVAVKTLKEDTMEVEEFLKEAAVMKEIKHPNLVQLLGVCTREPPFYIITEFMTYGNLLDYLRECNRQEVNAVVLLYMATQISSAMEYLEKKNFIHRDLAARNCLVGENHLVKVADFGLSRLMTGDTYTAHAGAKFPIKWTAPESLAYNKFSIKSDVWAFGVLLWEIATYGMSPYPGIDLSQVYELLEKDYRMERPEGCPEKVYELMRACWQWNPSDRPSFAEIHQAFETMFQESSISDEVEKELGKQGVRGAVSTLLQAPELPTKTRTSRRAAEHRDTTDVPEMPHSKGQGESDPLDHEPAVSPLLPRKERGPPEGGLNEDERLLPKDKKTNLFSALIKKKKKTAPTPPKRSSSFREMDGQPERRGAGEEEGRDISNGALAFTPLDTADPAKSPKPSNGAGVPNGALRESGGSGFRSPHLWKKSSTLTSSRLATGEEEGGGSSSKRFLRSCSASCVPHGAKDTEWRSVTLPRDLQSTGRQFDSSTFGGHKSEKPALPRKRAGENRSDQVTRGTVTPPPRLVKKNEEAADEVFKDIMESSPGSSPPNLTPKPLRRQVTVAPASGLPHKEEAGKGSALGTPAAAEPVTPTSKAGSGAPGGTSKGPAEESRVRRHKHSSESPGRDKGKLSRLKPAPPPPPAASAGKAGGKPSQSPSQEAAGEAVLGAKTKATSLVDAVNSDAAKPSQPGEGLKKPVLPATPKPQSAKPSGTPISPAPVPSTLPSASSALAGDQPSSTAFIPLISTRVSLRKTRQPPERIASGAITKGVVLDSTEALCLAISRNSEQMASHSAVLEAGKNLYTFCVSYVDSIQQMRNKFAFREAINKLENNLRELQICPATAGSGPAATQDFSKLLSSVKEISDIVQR
UniProt P31749: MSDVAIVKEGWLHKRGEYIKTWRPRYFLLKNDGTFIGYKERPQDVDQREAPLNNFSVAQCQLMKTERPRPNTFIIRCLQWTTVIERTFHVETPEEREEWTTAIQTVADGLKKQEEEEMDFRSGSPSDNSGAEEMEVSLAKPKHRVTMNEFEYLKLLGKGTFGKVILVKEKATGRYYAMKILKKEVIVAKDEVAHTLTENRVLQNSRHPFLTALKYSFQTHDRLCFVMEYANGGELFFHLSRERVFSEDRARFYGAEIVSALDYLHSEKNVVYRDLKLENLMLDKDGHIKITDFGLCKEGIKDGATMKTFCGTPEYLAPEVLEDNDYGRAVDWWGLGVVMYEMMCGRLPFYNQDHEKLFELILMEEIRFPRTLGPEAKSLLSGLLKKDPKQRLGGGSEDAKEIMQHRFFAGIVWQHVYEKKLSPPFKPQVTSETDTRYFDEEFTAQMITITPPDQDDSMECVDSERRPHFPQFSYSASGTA

Assays:
Conditions in all cases: K562; 2-18 h
[1] = target: STK38 (UniProt Q15208); test: kinase-Nluc reporter destabilization hit call (1 = scored as downregulated) (binary); higher = compound decreases kinase abundance
[2] = target: SYK (UniProt P43405); test: as above
[3] = target: TEC (UniProt P42680); test: as above
[4] = target: TYK2 (UniProt P29597); test: as above
[5] = target: ULK3 (UniProt Q6PHR2); test: as above
[6] = target: YES1 (UniProt P07947); test: as above
[7] = target: ZAK (UniProt Q9NYL2); test: as above
[8] = target: ZAP70 (UniProt P43403); test: as above
[9] = target: ABL1 (UniProt P00519); test: number of time points (of 5) at which kinase-Nluc abundance scored as decreased, DMSO-normalised (count); higher = more persistent destabilization
[10] = target: AKT1 (UniProt P31749); test: as above

SMILES	kinase-Nluc reporter destabilization hit call [1]	kinase-Nluc reporter destabilization hit call [2]	kinase-Nluc reporter destabilization hit call [3]	kinase-Nluc reporter destabilization hit call [4]	kinase-Nluc reporter destabilization hit call [5]	kinase-Nluc reporter destabilization hit call [6]	kinase-Nluc reporter destabilization hit call [7]	kinase-Nluc reporter destabilization hit call [8]	number of time points [9]	number of time points [10]
O=C(Nc1ncc(SCCN2CCCC2)s1)[C@]1(c2ccc(S(=O)(=O)C3CC3)cc2)C[C@H]1C1CCCCC1 [Globalagliatin] (2.5 µM)	inactive: 0	inactive: 0	inactive: 0	inactive: 0	inactive: 0	inactive: 0	inactive: 0	inactive: 0	0	0
O=C(O)/C=C/c1cc(Br)c(Br)c(Br)c1Br (10 µM)	inactive: 0	inactive: 0	inactive: 0	inactive: 0	inactive: 0	inactive: 0	inactive: 0	inactive: 0	0	0
C[C@@]12CCc3occc3[C@H]1CC[C@@]13C[C@@H](CC[C@H]12)[C@@](O)(CO)C3 [Cafestol] (10 µM)	inactive: 0	inactive: 0	inactive: 0	inactive: 0	inactive: 0	inactive: 0	inactive: 0	inactive: 0	0	0
COC(=O)/C=C/c1ccc(O)c(OC)c1 [Ferulic acid methyl ester] (10 µM)	inactive: 0	inactive: 0	inactive: 0	inactive: 0	inactive: 0	inactive: 0	inactive: 0	inactive: 0	0	0
Cn1c(=O)c(Oc2ccc(F)cc2F)cc2cnc(NC(CCO)CCO)nc21 [Pamapimod] (10 µM)	inactive: 0	inactive: 0	inactive: 0	inactive: 0	inactive: 0	inactive: 0	inactive: 0	inactive: 0	0	0
O=C1C(=Cc2ccc(O)c(O)c2)Oc2ccccc21 (2.5 µM)	inactive: 0	inactive: 0	inactive: 0	inactive: 0	inactive: 0	inactive: 0	inactive: 0	inactive: 0	0	0
Cc1cc(/C=C2\CC/C(=C\c3cc(C)c(O)c(C)c3)C2=O)cc(C)c1O [Pentagamavunon-1] (2.5 µM)	inactive: 0	inactive: 0	inactive: 0	inactive: 0	inactive: 0	inactive: 0	inactive: 0	inactive: 0	2	3
NC(=O)c1ccc2nc(-c3ccc(C4(N)CCC4)cc3)c(-c3ccccc3)n2n1 (10 µM)	inactive: 0	inactive: 0	inactive: 0	inactive: 0	inactive: 0	inactive: 0	inactive: 0	inactive: 0	0	0
CS(=O)(=O)N1CCc2c(-c3cnc(N)nc3)nc(N3CCOCC3)nc21 (10 µM)	inactive: 0	inactive: 0	inactive: 0	inactive: 0	inactive: 0	inactive: 0	inactive: 0	inactive: 0	0	0
CNS(=O)(=O)Nc1nccc(Cc2c(C)c3ccc(Oc4ncccn4)cc3oc2=O)c1F (10 µM)	inactive: 0	inactive: 0	inactive: 0	inactive: 0	inactive: 0	inactive: 0	inactive: 0	inactive: 0	1	0
Cn1cc(-c2ccc3ncc(Cc4ccc5ncccc5c4)n3n2)cn1 (10 µM)	inactive: 0	inactive: 0	inactive: 0	inactive: 0	inactive: 0	inactive: 0	inactive: 0	inactive: 0	0	0
CN(C)CCCNc1ccn2ncc(-c3ccc4c(c3)OCO4)c2n1 (10 µM)	inactive: 0	inactive: 0	inactive: 0	inactive: 0	inactive: 0	inactive: 0	inactive: 0	inactive: 0	0	0
O=C1NC(=O)C(c2ccccc2[N+](=O)[O-])=C1Nc1ccc(O)c(Cl)c1 (10 µM)	inactive: 0	inactive: 0	inactive: 0	inactive: 0	inactive: 0	inactive: 0	inactive: 0	inactive: 0	0	0
CC(C)n1nc(C#Cc2ccccc2)c2c(N)ncnc21 (10 µM)	inactive: 0	inactive: 0	inactive: 0	inactive: 0	inactive: 0	inactive: 0	inactive: 0	inactive: 0	2	0
O=C(CCc1ccc2n1[B-](F)(F)[N+]1=C(c3ccc[nH]3)C=CC1=C2)ON1C(=O)CCC1=O [Py-BODIPY-NHS ester] (2.5 µM)	inactive: 0	inactive: 0	inactive: 0	inactive: 0	inactive: 0	inactive: 0	inactive: 0	inactive: 0	0	0
CC(C)Cn1cc(C#N)c2cc(Oc3ccc(NC(=O)[C@@H]4CCCN4)cc3)ccc21 (10 µM)	inactive: 0	inactive: 0	inactive: 0	inactive: 0	inactive: 0	inactive: 0	inactive: 0	inactive: 0	0	0
N#Cc1c[nH]c2ccc(-c3ccc(-c4c(O)cccc4O)cc3)cc12 (10 µM)	inactive: 0	inactive: 0	inactive: 0	inactive: 0	inactive: 0	inactive: 0	inactive: 0	inactive: 0	0	0
CC(C)[C@H](CO)Nc1nc(Nc2ccc(C(=O)O)c(Cl)c2)c2ncn(C(C)C)c2n1 [Purvalanol B] (10 µM)	inactive: 0	inactive: 0	inactive: 0	inactive: 0	inactive: 0	inactive: 0	inactive: 0	inactive: 0	0	0
OCCC#Cc1nc(-c2ccc(F)cc2)c(-c2ccncc2)n1CCCc1ccccc1 (2.5 µM)	inactive: 0	inactive: 0	inactive: 0	inactive: 0	inactive: 0	inactive: 0	inactive: 0	inactive: 0	0	0
O=C(O)[C@]1(Cc2cccc(Nc3nccs3)n2)CC[C@@H](Oc2cccc(Cl)c2F)CC1 (2.5 µM)	inactive: 0	inactive: 0	inactive: 0	inactive: 0	inactive: 0	inactive: 0	inactive: 0	inactive: 0	1	0
CNC(=O)c1ccc(-c2cnc3ncc(Cc4ccc5ncccc5c4)n3n2)cc1F [Capmatinib] (10 µM)	inactive: 0	inactive: 0	inactive: 0	inactive: 0	inactive: 0	inactive: 0	inactive: 0	inactive: 0	0	0
Cc1cccc(-c2[nH]c(C(C)(C)C)nc2-c2ccc3c(c2)OCO3)n1 (2.5 µM)	inactive: 0	inactive: 0	inactive: 0	inactive: 0	inactive: 0	inactive: 0	inactive: 0	inactive: 0	0	0
COc1cc(-c2cc(-c3cccc(O)c3)cnc2N)cc(OC)c1OC (2.5 µM)	inactive: 0	inactive: 0	inactive: 0	inactive: 0	inactive: 0	inactive: 0	inactive: 0	inactive: 0	2	0
C[C@@H](N)COc1ccc(-c2cnc3ccc(N[C@H](C)c4cccc(F)c4)nn23)cc1 [Taletrectinib] (2.5 µM)	inactive: 0	inactive: 0	inactive: 0	inactive: 0	inactive: 0	inactive: 0	inactive: 0	inactive: 0	0	0
CN(C/C=C/C(=O)Nc1ccc(C(=O)Nc2cccc(Nc3ncc(Cl)c(-c4c[nH]c5ccccc45)n3)c2)cc1)CCCNC(=O)NCCOCCOCCOCCNC(=O)CCCC[C@@H]1SC[C@@H]2NC(=O)N[C@@H]21 (2.5 µM)	inactive: 0	inactive: 0	inactive: 0	inactive: 0	inactive: 0	inactive: 0	inactive: 0	inactive: 0	0	1
Cc1ccc(Nc2c(C(N)=O)cnc3cc(-c4ccncc4)ccc23)cc1C [cFMS Receptor Inhibitor II] (10 µM)	inactive: 0	inactive: 0	inactive: 0	inactive: 0	inactive: 0	inactive: 0	inactive: 0	inactive: 0	0	0
COc1ccc(S(=O)(=O)N(CCO)c2ccccc2CN(C)CC=Cc2ccc(Cl)cc2)cc1 (2.5 µM)	inactive: 0	inactive: 0	inactive: 0	inactive: 0	inactive: 0	inactive: 0	inactive: 0	inactive: 0	0	0
COc1cc(-c2cnc(N)c(-c3ccc(NC(=O)c4cn(CC5CCOCC5)cc(-c5ccc(C)cn5)c4=O)cc3F)c2)ccc1OC[C@H]1COCCO1 [DS-1205b (free base)] (10 µM)	inactive: 0	inactive: 0	inactive: 0	inactive: 0	inactive: 0	inactive: 0	inactive: 0	inactive: 0	0	0

Arranged by number of heavy atoms (high to low): part of the list above
SMILES	kinase-Nluc reporter destabilization hit call [1]	kinase-Nluc reporter destabilization hit call [2]	kinase-Nluc reporter destabilization hit call [3]	kinase-Nluc reporter destabilization hit call [4]	kinase-Nluc reporter destabilization hit call [5]	kinase-Nluc reporter destabilization hit call [6]	kinase-Nluc reporter destabilization hit call [7]	kinase-Nluc reporter destabilization hit call [8]	number of time points [9]	number of time points [10]
OCCC#Cc1nc(-c2ccc(F)cc2)c(-c2ccncc2)n1CCCc1ccccc1 (2.5 µM)	inactive: 0	inactive: 0	inactive: 0	inactive: 0	inactive: 0	inactive: 0	inactive: 0	inactive: 0	0	0
COc1cc(-c2cc(-c3cccc(O)c3)cnc2N)cc(OC)c1OC (2.5 µM)	inactive: 0	inactive: 0	inactive: 0	inactive: 0	inactive: 0	inactive: 0	inactive: 0	inactive: 0	2	0
CN(C)CCCNc1ccn2ncc(-c3ccc4c(c3)OCO4)c2n1 (10 µM)	inactive: 0	inactive: 0	inactive: 0	inactive: 0	inactive: 0	inactive: 0	inactive: 0	inactive: 0	0	0
